Assay results reported in article PMC509406.
No constants are given. Whether binding was seen depends on the method and setting. In cells and extracts the contact can be indirect. Here binding means that the protein was enriched with, or labelled near, the bait; the list need not be complete.

Target: T1, wild-type emerin (residues 1–222), the full nucleoplasmic domain (human) (UniProt P50402)
T1 sequence: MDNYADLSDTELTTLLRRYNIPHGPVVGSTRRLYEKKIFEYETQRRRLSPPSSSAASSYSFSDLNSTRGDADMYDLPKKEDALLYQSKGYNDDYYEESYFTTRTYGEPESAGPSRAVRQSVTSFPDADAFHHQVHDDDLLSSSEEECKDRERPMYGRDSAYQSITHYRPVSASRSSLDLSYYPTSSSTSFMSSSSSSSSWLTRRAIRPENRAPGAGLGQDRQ
Assay: affinity purification with mass spectrometry; emerin 1–222 coupled to Affigel-15 beads (0.5 mg/ml), 50 mg HeLa-S3 nuclear lysate proteins, 50 mM HEPES, 250 mM NaCl, 0.1% Triton X-100, 4 h at 4 °C; eluted with SDS sample buffer; MALDI-TOF and Western blotting; BSA beads as negative control; only the target purified

- binding: binds
Substance: nuclear-enriched αII-spectrin (from UniProt Q13813 1-2472)
